Laboratory results: PMC4024641

The chains behind the UniProt entries cited, without tags or fusion partners.
UniProt O60016: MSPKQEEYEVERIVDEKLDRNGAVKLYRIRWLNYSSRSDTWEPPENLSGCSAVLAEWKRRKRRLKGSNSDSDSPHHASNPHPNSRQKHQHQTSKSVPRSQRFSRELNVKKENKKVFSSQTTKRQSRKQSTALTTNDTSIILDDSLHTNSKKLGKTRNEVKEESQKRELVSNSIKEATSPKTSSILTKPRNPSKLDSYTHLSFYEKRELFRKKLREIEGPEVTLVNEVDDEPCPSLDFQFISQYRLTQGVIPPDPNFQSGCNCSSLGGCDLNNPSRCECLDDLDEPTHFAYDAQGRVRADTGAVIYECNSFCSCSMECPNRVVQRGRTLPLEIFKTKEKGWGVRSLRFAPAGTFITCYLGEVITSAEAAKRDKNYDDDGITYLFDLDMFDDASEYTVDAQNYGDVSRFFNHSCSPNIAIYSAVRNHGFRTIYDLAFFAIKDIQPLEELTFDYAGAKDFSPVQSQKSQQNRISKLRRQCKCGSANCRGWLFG

Tests used:
Test in all cases: affinity purification with mass spectrometry; 3×FLAG- or 13×myc-tagged bait purified from S. pombe cell extract on α-FLAG (M2) or α-myc (9E10) antibody cross-linked to Protein G Dynabeads, 4°C for 3 h, IP buffer (20 mM HEPES pH 7.5, 100 mM NaCl, 5 mM MgCl2, 1 mM EDTA, 10% glycerol, 0.25% Triton X-100, 0.5 mM DTT); LC-MS/MS; Red1-3×FLAG also from iss10Δ, rmn1Δ and Mtl1 knockdown cells
Ars2-3×FLAG (S. pombe) = target: T1, Ars2-3×FLAG (S. pombe) (UniProt O94326)
T1 sequence: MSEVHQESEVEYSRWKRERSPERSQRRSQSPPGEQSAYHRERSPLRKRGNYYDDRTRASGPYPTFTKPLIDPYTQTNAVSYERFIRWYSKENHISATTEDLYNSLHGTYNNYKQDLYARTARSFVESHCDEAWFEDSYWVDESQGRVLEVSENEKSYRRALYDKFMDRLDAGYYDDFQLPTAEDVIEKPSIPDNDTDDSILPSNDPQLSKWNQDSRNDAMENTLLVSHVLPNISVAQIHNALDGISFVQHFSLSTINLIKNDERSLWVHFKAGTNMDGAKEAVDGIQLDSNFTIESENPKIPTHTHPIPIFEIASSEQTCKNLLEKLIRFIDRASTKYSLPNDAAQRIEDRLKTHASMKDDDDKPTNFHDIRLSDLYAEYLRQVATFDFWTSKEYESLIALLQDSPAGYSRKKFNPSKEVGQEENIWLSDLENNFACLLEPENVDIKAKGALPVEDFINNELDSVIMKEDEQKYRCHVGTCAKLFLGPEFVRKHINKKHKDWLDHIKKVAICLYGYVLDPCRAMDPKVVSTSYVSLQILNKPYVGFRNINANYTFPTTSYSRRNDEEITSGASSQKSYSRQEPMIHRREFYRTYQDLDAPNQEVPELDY

Rmn1-13×myc (S. pombe) = target: T2, Rmn1-13×myc (S. pombe) (UniProt Q9USP9)
T2 sequence: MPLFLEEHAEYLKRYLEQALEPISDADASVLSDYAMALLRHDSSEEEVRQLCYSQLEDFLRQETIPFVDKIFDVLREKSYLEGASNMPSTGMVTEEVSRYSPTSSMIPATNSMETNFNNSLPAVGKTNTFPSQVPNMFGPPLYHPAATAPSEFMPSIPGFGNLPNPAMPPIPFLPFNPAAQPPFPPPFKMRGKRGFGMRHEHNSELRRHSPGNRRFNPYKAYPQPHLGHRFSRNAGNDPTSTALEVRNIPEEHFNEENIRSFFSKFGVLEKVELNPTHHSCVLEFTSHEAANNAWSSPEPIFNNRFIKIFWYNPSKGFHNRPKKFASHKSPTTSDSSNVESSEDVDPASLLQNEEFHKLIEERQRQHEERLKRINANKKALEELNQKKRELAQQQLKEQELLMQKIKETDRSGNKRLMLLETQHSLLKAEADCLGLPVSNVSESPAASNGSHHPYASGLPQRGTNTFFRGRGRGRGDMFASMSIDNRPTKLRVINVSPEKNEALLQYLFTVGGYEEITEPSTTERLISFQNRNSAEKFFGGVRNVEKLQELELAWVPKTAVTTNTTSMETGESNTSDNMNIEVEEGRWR

Mtl1-3×FLAG (S. pombe) = target: T3, Mtl1-3×FLAG (S. pombe) (UniProt O13799)
T3 sequence: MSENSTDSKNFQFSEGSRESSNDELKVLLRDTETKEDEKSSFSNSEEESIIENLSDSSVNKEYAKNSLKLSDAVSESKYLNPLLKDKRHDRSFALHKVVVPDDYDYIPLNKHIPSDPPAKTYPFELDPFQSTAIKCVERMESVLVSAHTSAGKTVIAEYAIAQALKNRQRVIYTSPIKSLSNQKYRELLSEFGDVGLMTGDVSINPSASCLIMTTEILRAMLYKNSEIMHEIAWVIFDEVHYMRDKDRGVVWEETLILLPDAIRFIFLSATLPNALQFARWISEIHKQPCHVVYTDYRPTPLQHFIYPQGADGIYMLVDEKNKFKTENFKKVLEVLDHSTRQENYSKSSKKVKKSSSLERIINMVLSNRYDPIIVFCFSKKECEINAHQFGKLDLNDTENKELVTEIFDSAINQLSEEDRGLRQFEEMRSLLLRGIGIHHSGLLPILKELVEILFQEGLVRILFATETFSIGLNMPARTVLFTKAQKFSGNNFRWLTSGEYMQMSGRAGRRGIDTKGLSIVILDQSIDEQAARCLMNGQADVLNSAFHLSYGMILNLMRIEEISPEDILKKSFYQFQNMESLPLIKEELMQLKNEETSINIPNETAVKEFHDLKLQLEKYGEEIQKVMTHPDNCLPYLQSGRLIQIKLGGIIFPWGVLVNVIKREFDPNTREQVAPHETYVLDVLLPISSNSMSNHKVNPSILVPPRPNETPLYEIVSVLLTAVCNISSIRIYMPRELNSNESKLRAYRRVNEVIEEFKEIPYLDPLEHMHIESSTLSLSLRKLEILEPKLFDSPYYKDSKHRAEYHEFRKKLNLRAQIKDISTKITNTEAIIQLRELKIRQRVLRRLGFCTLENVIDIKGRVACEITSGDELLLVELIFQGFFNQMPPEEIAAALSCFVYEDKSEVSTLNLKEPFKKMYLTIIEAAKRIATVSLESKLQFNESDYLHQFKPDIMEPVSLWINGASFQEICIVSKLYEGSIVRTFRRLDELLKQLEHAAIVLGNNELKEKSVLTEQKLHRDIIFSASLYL

Measured: binding

Clr4 (from UniProt O60016 1-490)
no binding: all assays above

No constants are given. Whether binding was seen depends on the method and setting. In cells and extracts the contact can be indirect. Here binding means that the protein was enriched with, or labelled near, the bait; the list need not be complete. A no says only that the protein was not detected with the bait. Tags and fused reporters may be left off the sequences shown.
